Experiment [1] has as its target T1, Transportin 3 (TNPO3) C511A mutant (human) (UniProt Q9Y5L0).
T1 sequence: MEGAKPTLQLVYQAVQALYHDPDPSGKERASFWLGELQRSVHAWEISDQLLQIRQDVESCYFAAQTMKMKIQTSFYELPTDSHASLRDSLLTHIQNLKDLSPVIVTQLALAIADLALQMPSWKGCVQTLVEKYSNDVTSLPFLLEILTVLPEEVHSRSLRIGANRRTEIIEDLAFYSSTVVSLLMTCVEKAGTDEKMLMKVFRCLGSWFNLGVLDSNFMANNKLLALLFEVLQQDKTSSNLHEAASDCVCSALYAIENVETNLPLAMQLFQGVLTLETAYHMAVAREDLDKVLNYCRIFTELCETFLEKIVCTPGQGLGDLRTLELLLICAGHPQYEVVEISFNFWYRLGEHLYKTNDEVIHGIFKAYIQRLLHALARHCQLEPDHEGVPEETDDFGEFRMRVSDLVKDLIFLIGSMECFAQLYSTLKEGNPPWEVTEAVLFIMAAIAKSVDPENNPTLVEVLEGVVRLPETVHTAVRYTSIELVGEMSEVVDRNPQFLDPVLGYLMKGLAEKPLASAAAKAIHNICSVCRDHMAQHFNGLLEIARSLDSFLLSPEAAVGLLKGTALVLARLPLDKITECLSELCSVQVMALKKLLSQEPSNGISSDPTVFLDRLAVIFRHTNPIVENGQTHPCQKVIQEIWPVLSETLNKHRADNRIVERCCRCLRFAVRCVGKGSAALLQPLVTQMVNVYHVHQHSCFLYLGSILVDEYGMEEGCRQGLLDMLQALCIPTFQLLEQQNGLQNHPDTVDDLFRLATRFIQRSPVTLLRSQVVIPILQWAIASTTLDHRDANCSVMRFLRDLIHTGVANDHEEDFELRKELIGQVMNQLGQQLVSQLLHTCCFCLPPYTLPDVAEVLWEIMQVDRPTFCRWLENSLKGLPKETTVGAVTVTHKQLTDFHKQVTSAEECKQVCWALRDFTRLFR
Put plainly: ITC; 100 µM ligand in the syringe injected (28 x 10 µL) into 10 µM TNPO3 (WT or C511A) in the cell; 25 °C; 50 mM Tris-HCl pH 7.5, 150 mM NaCl, 2 mM TCEP, 0.04% NaN3; both purified. (ITC needs no label: the signal is the heat of the interaction.)

For experiment [2], the target named is T2, Transportin 3 (TNPO3), full-length wild type (human) (UniProt Q9Y5L0).
T2 sequence: T1 sequence with A511C
As to the kind of experiment: NMR titration; 1H NMR spectra of 50 µM peptide free and with a stoichiometric amount (50 µM) of TNPO3 WT; line broadening of peptide signals; both purified.

Changes are numbered by the printed parent chain. Numbers in names are those of the source. These are yes or no findings as the source states them, for the method shown. Some entries that bind do so weakly or less than the wild type.

B1: CIRBP (157-172) synthetic peptide, R161A (peptide)
peptide: GGSYADSYDSYATHNE
As to B1, in experiment [1], the binding entry is on record as “no binding (tested: 100 μM ligand into 10 μM TNPO3)”.

B2: CIRBP (157-172) synthetic peptide, Y167A (peptide)
peptide: GGSYRDSYDSAATHNE
For B2, the binding entry in experiment [1] was “binds weakly”.

B3: ZCH18 (371-390) synthetic peptide (peptide, UniProt Q86VM9 371-390)
peptide: YYDYEIERFWRGGQYENFRV
As for B3, the binding entry in experiment [2] is “binds”.

B4: CIRBP (157-172) synthetic peptide, Y164A (peptide)
peptide: GGSYRDSADSYATHNE
As for B4, the binding result in experiment [1] is reported as “no binding (tested: 100 μM ligand into 10 μM TNPO3)”.

Source of the values: publication PMC12075686, “Structural basis of phosphorylation-independent nuclear import of CIRBP by TNPO3” (Nature Communications, 2025).
